Assay results as given in PMC11176080.
Read-outs that look alike come from different tables or passages of the source. Results are given in words; binding and its absence hold for the method and conditions named. Binding seen in cells or lysates may run through a third protein. Some binding calls cover weakened binding; strength is not graded here. Blank lines part the entries; values can stand above or below the molecule they belong to.

Sequences of proteins named here, by UniProt entry; tags and fusion partners are left off.
UniProt Q91ZW3: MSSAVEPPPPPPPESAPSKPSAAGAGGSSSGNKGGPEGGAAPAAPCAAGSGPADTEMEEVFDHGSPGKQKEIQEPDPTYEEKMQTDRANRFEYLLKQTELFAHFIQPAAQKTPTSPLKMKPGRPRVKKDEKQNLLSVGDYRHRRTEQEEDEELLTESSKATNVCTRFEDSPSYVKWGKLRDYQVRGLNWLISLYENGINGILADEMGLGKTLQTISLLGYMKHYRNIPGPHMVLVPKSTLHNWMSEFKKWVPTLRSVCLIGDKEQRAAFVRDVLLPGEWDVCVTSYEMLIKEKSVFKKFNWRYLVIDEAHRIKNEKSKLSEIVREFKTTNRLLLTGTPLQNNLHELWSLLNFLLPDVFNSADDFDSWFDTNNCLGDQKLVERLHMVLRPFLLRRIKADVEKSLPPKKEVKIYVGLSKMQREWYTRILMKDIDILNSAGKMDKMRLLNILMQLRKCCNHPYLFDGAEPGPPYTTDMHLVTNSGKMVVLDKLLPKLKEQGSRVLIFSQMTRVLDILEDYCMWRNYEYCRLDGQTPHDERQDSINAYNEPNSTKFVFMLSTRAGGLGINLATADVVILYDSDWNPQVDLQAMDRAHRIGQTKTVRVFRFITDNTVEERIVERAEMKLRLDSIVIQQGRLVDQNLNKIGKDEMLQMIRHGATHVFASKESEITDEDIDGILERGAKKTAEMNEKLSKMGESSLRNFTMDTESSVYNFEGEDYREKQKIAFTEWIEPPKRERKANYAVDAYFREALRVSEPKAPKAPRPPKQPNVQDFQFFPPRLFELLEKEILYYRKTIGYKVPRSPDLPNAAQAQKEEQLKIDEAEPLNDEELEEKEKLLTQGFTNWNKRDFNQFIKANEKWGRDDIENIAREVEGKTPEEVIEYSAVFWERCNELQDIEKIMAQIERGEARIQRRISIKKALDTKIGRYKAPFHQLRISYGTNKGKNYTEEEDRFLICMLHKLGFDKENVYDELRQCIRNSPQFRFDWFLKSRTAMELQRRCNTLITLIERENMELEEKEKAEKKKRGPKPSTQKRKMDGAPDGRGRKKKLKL
UniProt O88379: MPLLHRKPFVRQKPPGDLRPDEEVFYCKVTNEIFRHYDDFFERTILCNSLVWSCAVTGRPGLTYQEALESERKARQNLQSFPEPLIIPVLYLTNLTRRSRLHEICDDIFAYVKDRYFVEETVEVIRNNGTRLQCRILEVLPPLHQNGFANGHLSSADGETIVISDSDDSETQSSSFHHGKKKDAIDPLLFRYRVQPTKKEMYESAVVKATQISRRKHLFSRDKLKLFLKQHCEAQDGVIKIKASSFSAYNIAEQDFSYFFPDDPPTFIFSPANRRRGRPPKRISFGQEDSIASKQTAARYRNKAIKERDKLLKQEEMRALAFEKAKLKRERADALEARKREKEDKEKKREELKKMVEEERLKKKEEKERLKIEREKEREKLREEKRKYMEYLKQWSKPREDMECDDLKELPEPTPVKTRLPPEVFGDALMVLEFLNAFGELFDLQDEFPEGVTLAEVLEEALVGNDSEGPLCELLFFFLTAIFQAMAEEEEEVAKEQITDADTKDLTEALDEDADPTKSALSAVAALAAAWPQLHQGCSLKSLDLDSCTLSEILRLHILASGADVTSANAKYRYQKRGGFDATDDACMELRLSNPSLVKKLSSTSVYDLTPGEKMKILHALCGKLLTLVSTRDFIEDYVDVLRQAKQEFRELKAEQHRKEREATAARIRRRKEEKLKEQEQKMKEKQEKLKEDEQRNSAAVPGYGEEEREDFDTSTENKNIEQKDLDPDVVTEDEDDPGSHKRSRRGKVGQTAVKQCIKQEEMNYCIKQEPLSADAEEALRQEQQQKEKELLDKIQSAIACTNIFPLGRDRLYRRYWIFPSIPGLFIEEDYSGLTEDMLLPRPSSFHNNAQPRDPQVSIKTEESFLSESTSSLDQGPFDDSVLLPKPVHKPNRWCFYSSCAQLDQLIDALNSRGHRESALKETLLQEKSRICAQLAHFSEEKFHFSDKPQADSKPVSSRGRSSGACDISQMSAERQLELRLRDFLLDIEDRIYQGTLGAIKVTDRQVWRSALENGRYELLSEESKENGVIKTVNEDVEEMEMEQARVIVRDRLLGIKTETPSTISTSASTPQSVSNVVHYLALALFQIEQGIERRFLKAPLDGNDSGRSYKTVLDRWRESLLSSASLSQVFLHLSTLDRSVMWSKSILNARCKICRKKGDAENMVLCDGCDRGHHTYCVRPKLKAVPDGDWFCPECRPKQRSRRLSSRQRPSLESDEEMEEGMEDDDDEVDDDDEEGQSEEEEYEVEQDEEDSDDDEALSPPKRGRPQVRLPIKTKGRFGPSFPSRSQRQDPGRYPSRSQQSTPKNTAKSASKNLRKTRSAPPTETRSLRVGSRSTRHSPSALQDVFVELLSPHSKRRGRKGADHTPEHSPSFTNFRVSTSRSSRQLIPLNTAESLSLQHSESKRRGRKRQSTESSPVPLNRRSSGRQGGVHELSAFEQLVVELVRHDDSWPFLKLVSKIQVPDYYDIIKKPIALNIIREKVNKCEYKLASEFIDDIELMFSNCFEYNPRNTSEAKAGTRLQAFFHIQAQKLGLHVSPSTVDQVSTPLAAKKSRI
UniProt Q91YE5: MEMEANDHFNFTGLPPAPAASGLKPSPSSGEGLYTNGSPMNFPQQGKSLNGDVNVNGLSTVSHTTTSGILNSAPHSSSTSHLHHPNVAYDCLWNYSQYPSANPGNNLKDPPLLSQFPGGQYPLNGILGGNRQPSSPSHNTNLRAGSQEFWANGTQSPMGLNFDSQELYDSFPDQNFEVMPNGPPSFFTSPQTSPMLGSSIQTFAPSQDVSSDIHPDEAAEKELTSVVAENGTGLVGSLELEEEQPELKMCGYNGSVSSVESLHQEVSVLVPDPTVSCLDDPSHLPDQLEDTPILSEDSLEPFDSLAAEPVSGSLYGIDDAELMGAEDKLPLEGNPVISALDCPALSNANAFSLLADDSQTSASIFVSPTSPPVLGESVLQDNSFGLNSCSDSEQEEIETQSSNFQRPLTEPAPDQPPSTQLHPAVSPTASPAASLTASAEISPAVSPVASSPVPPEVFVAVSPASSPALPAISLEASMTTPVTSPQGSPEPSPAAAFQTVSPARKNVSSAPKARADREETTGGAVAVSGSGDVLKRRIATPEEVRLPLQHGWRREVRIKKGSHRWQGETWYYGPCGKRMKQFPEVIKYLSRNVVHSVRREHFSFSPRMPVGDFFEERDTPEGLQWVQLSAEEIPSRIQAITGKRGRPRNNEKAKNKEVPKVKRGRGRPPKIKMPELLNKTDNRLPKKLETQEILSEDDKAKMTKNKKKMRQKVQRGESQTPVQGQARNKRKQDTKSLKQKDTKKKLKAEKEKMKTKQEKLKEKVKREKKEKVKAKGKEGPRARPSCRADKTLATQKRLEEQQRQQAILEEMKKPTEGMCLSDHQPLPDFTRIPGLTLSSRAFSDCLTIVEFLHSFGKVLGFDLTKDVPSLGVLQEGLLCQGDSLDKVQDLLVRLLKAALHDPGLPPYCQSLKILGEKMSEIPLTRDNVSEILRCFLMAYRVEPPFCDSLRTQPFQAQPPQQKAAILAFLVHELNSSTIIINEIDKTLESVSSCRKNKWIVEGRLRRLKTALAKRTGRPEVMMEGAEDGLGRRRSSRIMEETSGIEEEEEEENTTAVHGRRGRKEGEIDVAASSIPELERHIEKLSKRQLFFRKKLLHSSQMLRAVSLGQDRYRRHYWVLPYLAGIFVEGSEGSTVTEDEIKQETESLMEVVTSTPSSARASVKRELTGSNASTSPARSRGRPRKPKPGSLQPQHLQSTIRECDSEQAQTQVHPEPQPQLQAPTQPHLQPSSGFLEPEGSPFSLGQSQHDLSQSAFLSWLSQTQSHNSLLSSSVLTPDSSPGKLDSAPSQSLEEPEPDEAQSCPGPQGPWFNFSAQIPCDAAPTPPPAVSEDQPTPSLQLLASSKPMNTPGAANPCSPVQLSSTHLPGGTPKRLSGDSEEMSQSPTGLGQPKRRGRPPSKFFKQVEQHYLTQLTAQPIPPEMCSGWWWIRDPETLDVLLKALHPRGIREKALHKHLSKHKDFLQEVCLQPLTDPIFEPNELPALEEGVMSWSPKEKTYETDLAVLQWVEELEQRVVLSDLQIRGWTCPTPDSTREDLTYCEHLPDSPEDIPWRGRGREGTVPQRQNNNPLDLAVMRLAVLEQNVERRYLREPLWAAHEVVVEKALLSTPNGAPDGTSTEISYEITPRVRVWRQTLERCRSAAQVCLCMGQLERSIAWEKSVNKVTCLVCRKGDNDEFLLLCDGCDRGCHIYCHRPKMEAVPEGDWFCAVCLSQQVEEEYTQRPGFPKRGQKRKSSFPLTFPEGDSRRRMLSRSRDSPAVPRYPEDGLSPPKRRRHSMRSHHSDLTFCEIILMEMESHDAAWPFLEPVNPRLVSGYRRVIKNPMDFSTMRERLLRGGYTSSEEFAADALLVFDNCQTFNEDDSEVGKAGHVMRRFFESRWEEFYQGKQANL
UniProt E9Q2Z1: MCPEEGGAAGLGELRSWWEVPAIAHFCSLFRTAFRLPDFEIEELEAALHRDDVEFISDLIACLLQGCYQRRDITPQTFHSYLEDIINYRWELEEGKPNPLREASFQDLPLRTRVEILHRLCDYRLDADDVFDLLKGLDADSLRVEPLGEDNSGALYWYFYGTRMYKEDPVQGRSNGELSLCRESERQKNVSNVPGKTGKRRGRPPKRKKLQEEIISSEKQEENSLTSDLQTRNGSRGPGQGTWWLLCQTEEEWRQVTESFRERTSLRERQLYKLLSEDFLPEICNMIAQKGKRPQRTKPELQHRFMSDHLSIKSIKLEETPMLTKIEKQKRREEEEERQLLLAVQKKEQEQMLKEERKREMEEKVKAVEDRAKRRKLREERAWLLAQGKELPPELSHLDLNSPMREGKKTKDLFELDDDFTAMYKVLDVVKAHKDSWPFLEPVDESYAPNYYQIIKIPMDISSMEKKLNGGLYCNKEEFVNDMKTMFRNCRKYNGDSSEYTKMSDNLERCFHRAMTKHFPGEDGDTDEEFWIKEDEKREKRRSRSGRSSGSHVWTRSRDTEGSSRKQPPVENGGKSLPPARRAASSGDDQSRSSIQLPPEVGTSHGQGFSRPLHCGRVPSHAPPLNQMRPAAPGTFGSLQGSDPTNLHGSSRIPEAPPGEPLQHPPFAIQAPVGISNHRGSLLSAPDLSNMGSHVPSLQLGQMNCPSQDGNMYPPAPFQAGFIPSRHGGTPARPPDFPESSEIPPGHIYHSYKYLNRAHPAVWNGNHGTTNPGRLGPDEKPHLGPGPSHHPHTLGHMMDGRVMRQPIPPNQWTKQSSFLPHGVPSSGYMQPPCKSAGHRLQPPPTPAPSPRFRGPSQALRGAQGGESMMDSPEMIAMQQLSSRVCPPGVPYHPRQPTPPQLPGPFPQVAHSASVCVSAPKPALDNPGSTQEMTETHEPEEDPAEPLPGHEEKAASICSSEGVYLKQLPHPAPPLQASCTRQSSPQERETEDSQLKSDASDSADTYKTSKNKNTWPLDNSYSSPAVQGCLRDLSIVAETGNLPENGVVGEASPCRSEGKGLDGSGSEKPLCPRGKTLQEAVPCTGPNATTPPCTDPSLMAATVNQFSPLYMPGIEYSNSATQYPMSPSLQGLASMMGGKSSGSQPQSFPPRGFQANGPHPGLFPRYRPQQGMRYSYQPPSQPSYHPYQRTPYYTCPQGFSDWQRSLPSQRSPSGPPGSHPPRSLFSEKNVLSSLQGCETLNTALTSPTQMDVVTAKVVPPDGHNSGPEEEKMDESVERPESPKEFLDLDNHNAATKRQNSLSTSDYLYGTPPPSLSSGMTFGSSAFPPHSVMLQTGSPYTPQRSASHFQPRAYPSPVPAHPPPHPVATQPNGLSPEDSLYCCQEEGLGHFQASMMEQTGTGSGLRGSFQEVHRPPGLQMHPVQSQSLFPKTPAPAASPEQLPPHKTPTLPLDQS

Key:
[1] = biological target: SNF2H (SMARCA5) (mouse (endogenous in mESCs)) (UniProt Q91ZW3); assay: co-IP; anti-SNF2H antibody on protein G Dynabeads from mESC nuclear extracts (RIPA buffer, sonicated, Benzonase), 4 °C overnight; western blot against ISWI subunits; WT and ISWI subunit deletion lines
[2] = biological target: SNF2H (SMARCA5) (mouse (endogenous in mESCs)) (UniProt Q91ZW3); assay: as above; remark: listed apart in the source

Molecule: ACF1 (BAZ1A) (from UniProt O88379 1-1555)
binding [1]: binds

B1: RSF1 (protein, UniProt E9PWW9 1-1441)
chain: MAAAAAAAAAAAAAAMAPPGCPGSCPNFAVVCSFLERYGPLLDLPELPFPELERVLQAPPPDIGNGEVPKELVELHLKLMRKIGKSVTADRWEKYLIKICQEFNSTWAWEMEKKGYLEMSVECKLALLKYLCECQFDDNLKFKNIINEEDADTMRLQPIGRDKDGLMYWYQLDQDHNVRMYIEEQDDQDGSSWKCIVRNRNELAETLALLKAQIDPVLLKNSSQQEDSSRESPTLEDEETKKDEETPKQEASKENEKTGADERSVDSGKCSAASALEEPAVKTEKADEKELAKLPVIVKLEKPLPETEEKKIIREESDSFKENVKPIKVEAKECRADPKDLKGSLERLGSQEPERADFGSNIKSQDIIEKSTEETEKLKNDQQAKIPLKKREIKLSDDFDSPVKGPLCKSATPTKEVLKDDIKQEEETCKRVSTISALSHEGKQLVNGEINDDKVIPNFKTEQMEIQLCDTKEDSASIPAKDGNACMEGNGTECLNSVITSTKTSELEKEAPLGKGIDSSVPDIESLSQKARLEEPGLLNMDMPLEPSEKATDLSLKPTLSATEPCSTKVEEKAPRSKSENHTPGIECLERVEKAKKTSIDKDIQKLSPIPEEVVRGALESEKSGPCEVAETPLPLSMAGAKEKQTSEKKDVDCSRGSSESQSLENASPEILKEDSESSREEVAKLDNAQTSGMEDTSETKGSVQKNKFKYKLVSERNSTASENTEITSERKKEGIKLTIRISSRKKKPDCPPQTVDSESKEEKAGKEEEKASVGRTLRRSPRISRPTAKVAEIRVQKADKRRADGEDGVEGEPASLQTADKKDHLKKAEKDTNSKASKVKPKGKVRWTGSRTRGRWKYSSNDESEGSESDKSSAALEEEEGKEGEEAVLPDDDEPCKKCGLPNHPELILLCDSCDSGYHTACLRPPLMIIPDGEWFCPPCQHKLLCEKLEEQLQDLDVALKKKERAERRKERLVYVGISIENIIPPQEPEFSEEQEEKKKDAKKSKANALERRSTRTRKCISYRFDEFDEAIDEAIEDDIKEADGGGVGRGKDISTITGHRGKDISTILDEERKENKRPQRAAAARRKKRRRLNDLDSDSNLDEEESEDEFKISDGSQDEFVVSDENPDESEEEPPSNEDSDTDFCSRRLRRHPSRPMRQSRRLRRKTPKKKYSDDDEEEEESEENSRDSESDFSDDFSDDFVETRRRRSRRNQKRQINYKEDSESDGSQKSLRRGKEIRRVHKRRLSSSESEESFMSKNSEDDELTKESKRSVRKRGRSTDDYSEADEDDEEEGKPSRKRLHRIETDEESCDNAHGDADQPARDSQPSALPSEQESSKKPYRIESDEEEDFENKVGSPLDYSLVDLPSTNGQSPGKAIENLMGKATEKSQTPKDNGTASASLAPNGTSGGQEVGAPEEDEDELLRVTDLVDYVCNSEQL
binding [2]: binds

Further lines, results first:

binding [1]: binds
Molecule: TIP5 (BAZ2A) (from UniProt Q91YE5 1-1889)

binding [1]: binds
Molecule: CECR2 (from UniProt E9Q2Z1 1-1453)

binding [2]: binds
B2: WSTF (BAZ1B) (protein, UniProt Q9Z277 1-1479)
chain: MAPLLGRKPFPLVKPLPGEEPLFTIPHTQEAFRTREEYEARLERYSERIWTCKSTGSSQLTHKEAWEEEQEVAELLKEEFPNWYEKLVLEMVHHNTASLEKLVDSAWLEIMTKYAVGEECDFEVGKEKMLKVKIVKIHPLEKVDEEAVEKKSDGACDSPSSDKENSSQMAQDLQKKETVVKEDEGRRESINDRARRSPRKLPTSLKKGERKWAPPKFLPHKYDVKLQNEDKIISNVPADSLIRTERPPNKEILRYFIRHNALRAGTGENAPWVVEDELVKKYSLPSKFSDFLLDPYKYMTLNPSTKRRNTGSPDRKPSKKPKRDSSSLSSPLNPKLWCHVHLEKSLNGPPLKVKNSKNSKSPEEHLEGVMKIMSPNNNKLHSFHIPKKGPAAKKPGKHSDKPLKAKGRGKGILNGQKSTGNSKSPSKCVKTPKTKMKQMTLLDMAKGTQKMTRTPRSSGGVPRSSGKPHKHLPPAALHLIAYYKENKDKEDKKSALSCVISKTARLLSNEDRARLPEELRALVQKRYELLEHKKRWASMSEEQRKEYLKKKRQELKERLREKAKERREREMLERLEKQKRFEDQELGGRNLPAFRLVDTPEGLPNTLFGDVALVVEFLSCYSGLLLPDAQYPITAVSLMEALSADKGGFLYLNRVLVILLQTLLQDEIAEDYGELGMKLSEIPLTLHSVSELVRLCLRRCDVQEDSEGSETDDNKDSTPFEDNEVQDEFLEKLETSEFFELTSEEKLRILTALCHRILMTYSVQDHMETRQQVSAELWKERLAVLKEENDKKRAEKQKRKEMEARNKENGKEENVLGKVDRKKEIVKIEQQVEVEADDMISAVKSRRLLSMQAKRKREIQERETKVRLEREAEEERMRKHKAAAEKAFQEGIAKAKLVLRRTPIGTDRNHNRYWLFSNEVPGLFIEKGWVHNSIDYRFKHHRKDHSNLPDDDYCPRSKKANLGKNASVNAHHGPALEAVETTVPKQGQNLWFLCDSQKELDELLSCLHPQGIRESQLKERLEKRYQEITHSIYLARKPNLGLKSCDGNQELLNFLRSDLIEVATRLQKGGLGYMEGTSEFEARVISLEKLKDFGECVIALQASVIKKFLQGFMAPKQKKRKLQSEDSTKSEEVDEEKKMVEEAKVASALEKWKTAIREAQTFSRMHVLLGMLDACIKWDMSAENARCKVCRKKGEDDKLILCDECNKAFHLFCLRPALYEVPDGEWQCPACQPPTARRNSRGRNYTEESTSEGSEGDESGEEEEEEEEEEEEEEDYEVAGLRLRPRKTIRGKQSVIPAARPGRPPGKKSHPARRSRPKDDPEVDDLVLQTKRISRRQSLELQKCEDILHKLVKYRFSWPFREPVTRDEAEDYYDVIEHPMDFQTIQNKCSCGNYRSVQEFLTDMKQVFANAELYNCRGSHVLSCMEKTEQCLLALLQKHLPGHPYVRRKRRKFPDRLADDEGDSDSESVGQSRGRRQKK
